# Source: PubChem BioAssay (EPA / NIEHS)
# Chains of the proteins cited; added tags and fusions are not shown. Lines headed by an entry give the natural chain unless they say otherwise; changes in a name come on top.
# UniProt P60484: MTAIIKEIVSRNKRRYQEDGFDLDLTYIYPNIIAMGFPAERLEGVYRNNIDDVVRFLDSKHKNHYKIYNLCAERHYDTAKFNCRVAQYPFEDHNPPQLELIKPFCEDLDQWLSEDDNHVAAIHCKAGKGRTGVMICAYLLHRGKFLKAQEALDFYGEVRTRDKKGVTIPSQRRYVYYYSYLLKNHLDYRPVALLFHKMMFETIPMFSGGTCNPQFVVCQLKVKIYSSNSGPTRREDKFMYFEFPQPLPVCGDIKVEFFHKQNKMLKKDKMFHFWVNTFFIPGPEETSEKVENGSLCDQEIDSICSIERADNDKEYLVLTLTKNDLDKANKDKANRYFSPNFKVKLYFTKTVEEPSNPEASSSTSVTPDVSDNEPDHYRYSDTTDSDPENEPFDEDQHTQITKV
# UniProt P04406: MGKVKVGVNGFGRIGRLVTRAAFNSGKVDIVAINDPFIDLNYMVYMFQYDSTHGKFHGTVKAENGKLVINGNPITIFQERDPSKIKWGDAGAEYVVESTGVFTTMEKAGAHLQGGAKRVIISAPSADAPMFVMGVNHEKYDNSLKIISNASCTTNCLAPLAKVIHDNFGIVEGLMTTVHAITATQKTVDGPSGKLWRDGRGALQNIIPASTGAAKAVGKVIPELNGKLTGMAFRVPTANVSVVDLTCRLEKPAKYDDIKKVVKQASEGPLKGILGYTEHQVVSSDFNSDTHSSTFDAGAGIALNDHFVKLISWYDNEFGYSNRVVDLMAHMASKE
# UniProt P10275: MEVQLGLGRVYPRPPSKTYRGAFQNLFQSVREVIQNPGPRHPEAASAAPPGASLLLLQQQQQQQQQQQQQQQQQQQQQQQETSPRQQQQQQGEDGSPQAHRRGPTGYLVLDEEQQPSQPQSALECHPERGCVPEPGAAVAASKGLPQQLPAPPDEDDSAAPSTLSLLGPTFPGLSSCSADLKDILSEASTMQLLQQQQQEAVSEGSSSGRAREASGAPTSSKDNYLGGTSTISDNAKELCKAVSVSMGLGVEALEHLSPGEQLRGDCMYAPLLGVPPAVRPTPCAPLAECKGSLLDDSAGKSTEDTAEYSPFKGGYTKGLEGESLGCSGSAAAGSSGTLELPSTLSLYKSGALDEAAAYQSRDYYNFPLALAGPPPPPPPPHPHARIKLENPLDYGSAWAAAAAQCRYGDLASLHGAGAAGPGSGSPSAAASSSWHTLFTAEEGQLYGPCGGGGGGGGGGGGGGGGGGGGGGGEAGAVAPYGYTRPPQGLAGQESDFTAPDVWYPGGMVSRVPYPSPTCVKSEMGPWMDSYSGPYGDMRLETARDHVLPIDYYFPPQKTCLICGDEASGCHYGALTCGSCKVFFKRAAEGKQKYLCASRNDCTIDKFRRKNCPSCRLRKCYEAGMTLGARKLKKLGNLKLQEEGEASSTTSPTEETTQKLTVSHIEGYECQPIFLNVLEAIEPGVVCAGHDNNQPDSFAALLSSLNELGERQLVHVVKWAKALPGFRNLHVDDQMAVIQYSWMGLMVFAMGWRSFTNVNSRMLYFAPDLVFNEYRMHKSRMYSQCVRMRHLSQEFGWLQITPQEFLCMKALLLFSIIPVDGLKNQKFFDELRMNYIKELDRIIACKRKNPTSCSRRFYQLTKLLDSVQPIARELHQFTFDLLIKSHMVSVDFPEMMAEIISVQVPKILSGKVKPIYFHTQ
# UniProt P19785, whole entry, looked up: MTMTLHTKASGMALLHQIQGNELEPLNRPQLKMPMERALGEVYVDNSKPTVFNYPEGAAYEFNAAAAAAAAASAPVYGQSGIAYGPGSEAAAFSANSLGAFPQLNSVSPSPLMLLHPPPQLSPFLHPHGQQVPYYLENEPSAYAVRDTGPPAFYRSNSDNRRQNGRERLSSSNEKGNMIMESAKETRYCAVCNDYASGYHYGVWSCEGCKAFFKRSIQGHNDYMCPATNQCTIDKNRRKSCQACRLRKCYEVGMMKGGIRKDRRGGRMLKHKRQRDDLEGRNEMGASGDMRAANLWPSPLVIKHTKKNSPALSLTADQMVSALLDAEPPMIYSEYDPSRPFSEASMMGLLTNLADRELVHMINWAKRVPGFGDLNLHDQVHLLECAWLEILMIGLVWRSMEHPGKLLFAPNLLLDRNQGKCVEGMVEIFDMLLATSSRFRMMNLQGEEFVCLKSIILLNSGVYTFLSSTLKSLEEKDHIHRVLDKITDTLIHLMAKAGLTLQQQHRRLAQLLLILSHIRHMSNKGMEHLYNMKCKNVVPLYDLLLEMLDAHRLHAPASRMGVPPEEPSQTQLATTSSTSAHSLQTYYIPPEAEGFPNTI
# UniProt P08684, whole entry, looked up: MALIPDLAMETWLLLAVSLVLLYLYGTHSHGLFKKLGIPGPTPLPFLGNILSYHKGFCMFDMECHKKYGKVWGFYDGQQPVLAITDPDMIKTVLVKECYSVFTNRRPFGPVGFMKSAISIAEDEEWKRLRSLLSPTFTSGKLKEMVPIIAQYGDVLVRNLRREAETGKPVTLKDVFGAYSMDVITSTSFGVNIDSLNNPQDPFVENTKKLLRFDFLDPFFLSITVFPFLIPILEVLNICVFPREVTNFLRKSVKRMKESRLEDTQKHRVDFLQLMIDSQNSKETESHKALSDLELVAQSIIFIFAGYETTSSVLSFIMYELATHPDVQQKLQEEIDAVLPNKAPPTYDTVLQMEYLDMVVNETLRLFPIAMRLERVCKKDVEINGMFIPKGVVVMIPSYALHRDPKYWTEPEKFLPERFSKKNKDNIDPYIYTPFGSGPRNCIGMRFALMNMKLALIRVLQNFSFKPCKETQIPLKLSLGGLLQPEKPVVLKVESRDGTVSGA
# UniProt P03372, whole entry, looked up: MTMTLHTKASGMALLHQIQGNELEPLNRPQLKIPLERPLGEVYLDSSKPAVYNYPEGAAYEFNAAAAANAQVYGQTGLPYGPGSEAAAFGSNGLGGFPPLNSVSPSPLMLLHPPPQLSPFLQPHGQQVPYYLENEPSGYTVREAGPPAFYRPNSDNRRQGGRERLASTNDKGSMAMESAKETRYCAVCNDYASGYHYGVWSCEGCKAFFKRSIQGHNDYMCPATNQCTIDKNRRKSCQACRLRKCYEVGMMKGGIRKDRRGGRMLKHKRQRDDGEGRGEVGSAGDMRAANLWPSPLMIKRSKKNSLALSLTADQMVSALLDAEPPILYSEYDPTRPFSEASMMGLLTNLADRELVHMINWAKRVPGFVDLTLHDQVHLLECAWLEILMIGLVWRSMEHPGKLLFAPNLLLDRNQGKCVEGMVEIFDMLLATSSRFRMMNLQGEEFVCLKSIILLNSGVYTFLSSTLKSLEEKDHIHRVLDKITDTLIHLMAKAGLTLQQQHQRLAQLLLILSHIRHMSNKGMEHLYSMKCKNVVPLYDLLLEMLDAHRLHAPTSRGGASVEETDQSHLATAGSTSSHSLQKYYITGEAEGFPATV
# UniProt Q92731, whole entry, looked up: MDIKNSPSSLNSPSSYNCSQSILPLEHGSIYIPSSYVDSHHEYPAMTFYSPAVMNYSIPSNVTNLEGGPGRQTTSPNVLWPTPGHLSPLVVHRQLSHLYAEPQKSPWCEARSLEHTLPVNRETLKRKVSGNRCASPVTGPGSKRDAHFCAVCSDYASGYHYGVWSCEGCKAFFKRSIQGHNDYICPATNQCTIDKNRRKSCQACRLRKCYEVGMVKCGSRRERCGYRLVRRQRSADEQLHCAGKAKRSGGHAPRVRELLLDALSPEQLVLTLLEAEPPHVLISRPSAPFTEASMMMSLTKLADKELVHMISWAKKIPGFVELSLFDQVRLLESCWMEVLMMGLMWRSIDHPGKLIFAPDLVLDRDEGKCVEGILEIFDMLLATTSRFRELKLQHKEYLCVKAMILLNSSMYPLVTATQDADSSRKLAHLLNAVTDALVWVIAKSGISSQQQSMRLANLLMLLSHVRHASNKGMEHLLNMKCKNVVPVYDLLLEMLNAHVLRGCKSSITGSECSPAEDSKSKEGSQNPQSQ
# The shares of active, inactive and inconclusive entries below differ from those in the screen. For some of these results: Potencies of inconclusive entries are doubtful fits and often do not repeat. Where a structure was tested more than once in an assay, its records may differ in their call. Activity calls are given as the source filed them. Rule for the calls: active = hit-call score of the fitted dose curve at least 0.9, where 1 is the maximum; inconclusive = response in the unintended direction; inactive = score below 0.9.
# Key:
# [1] = target: human Phosphatase and Tensin Homolog (PTEN), PTEN (gene 5728) (UniProt P60484); test: NVS_ENZ_hPTEN: NovaScreen (NVS) Enzymatic Assay for human Phosphatase and Tensin Homolog (PTEN) (AID 2283203)
# In short: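 Cell-free recombinant human PTEN with fluorescent substrate; product separated by electrophoretic mobility shift and read by fluorescence 1 h after dosing. Primary screen in duplicate at 25 uM, actives followed in concentration series versus DMSO.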
# [2] = Tanguay_ZF_120hpf_CIRC_legacy: (Legacy) Oregon State University Tanguay Lab 120 Hour Post-fertilization zebrafish Assay for Circulatory Malformation (AID 2283651)
# In short: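 Read-out: presence or absence of circulatory malformation at 120 hpf, scored by brightfield microscopy, fitted in the gain-of-signal direction against DMSO baseline. Wild-type 5D larvae were exposed from 6 hpf after enzymatic chorion removal.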
# [3] = Tanguay_ZF_120hpf_NC_legacy: (Legacy) Oregon State University Tanguay Lab 120 Hour Post-fertilization zebrafish Assay for Notochord and Tail Malformation (AID 2283656)
# In short: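 Dechorionated Tropical 5D wild-type zebrafish embryos, one per well from 6 hpf, statically exposed to 120 hpf at 28C in 0.64% DMSO final. Notochord distortion scored present/absent by brightfield; dead embryos excluded.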
# [4] = read-out: Glyceraldehyde-3-phosphate dehydrogenase (Homo sapiens) (UniProt P04406); test: CLD_GAPDH_6hr: CellzDirect (CLD) Gene Expression Assay for Baseline Control (Glyceraldehyde 3-phosphate dehydrogenase) at 6 hours (AID 2283681)
# In short: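 Primary human hepatocytes from two donor preparations, dosed at multiple concentrations with 0.2% DMSO vehicle; GAPDH mRNA measured 6 h after dosing by chemiluminescent quantitative nuclease protection assay (qNPA) on denatured lysates. Serves as background control; cytotoxicity annotated by morphology.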
# [5] = read-out: HMG-CoA synthase (HMGCS2), HMGCS2 (gene 3158); test: CLD_HMGCS2_6hr: CellzDirect (CLD) Gene Expression Assay for HMG-CoA synthase (HMGCS2) at 6 hours (AID 2283682);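 note: actives raise HMGCS2 transcript above the 0.2% DMSO vehicle baseline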
# In short: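 Primary human hepatocytes dosed daily with fresh chemical, 0.2% DMSO vehicle; HMGCS2 mRNA measured at 6 h by qNPA chemiluminescence. Gain of signal fitted against DMSO; cytotoxicity flagged from phase-contrast morphology.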
# [6] = read-out: organic anion transporter (SLCO1B1), SLCO1B1 (gene 10599); test: CLD_SLCO1B1_24hr: CellzDirect (CLD) Gene Expression Assay for organic anion transporter (SLCO1B1) at 24 hours (AID 2283690)
# In short: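 Primary human hepatocytes (two donor preparations) dosed daily for two days with chemicals at multiple concentrations, 0.2% DMSO vehicle. SLCO1B1 mRNA at 24 h measured by qNPA chemiluminescence; induction fitted relative to DMSO.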
# [7] = read-out: sulfotransferase (SULT2A), SULT2A1 (gene 6822); test: CLD_SULT2A_48hr: CellzDirect (CLD) Gene Expression Assay for sulfotransferase (SULT2A) at 48 hours (AID 2283710);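 note: hits raise SULT2A1 transcript above the 0.2% DMSO vehicle baseline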
# In short: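 Primary human hepatocytes (two donor preparations) dosed daily for two days with chemicals at multiple concentrations, vehicle 0.2% DMSO; SULT2A1 mRNA induction at 48 h by quantitative nuclease protection assay, chemiluminescent read-out, fitted for gain of signal versus DMSO.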
# [8] = STM_H9_OrnCyssISnorm_ratio: Stemina devTOX quickPredict H9 human embryonic stem cell (hESC)-based Assay for Ornithine (ORN):Cystine (CYSS) Ratio (AID 2283714)
# In short: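 Undifferentiated H9 hESCs exposed 72 h, media and compound replaced every 24 h; final 24-h conditioned media deproteinized and analysed by UPLC-HRMS against C13 spike-ins. Value is the internal-standard-normalized ORN/CYSS ratio versus 0.1% DMSO.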
# [9] = read-out: xenobiotic metabolism (CYP2C9), CYP2C9 (gene 1559); test: CLD_CYP2C9_6hr: CellzDirect (CLD) Gene Expression Assay for xenobiotic metabolism (CYP2C9) at 6 hours (AID 2283664)
# In short: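 Primary human hepatocytes dosed daily with test chemicals at multiple concentrations; harvested at 6 h. CYP2C9 mRNA induction measured by qNPA chemiluminescence. Gain of signal fitted against 0.2% DMSO vehicle; cytotoxicity annotated from phase-contrast morphology.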
# [10] = target: Nucleoli Translocation, AR (gene 367) (UniProt P10275); test: UPITT_HCI_U2OS_AR_TIF2_Nucleoli_Agonist: University of Pittsburgh U2OS Androgen Receptor-Transcriptional Intermediary Factor 2 (AR-TIF2) Agonism High Content Imaging Assay for Nucleoli Translocation (AID 2283998)
# In short: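 Readout is red (AR-RFP) fluorescence localized to nucleoli, measured by high-content imaging and analysed for increase relative to DMSO. Compound series spanned 0.195 to 50 uM final in 0.5% DMSO.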
# [11] = ACEA_AR_agonist_AUC_viability: ACEA Biosciences xCELLigence Real-Time Cell Analysis on Androgen Receptor Agonism for Viability (AID 2283775);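 note: viability read 80 hours after compound addition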
# In short: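 Real-time impedance tracking of 22Rv1 growth, readings every 5 min for 5 h then hourly; area-under-curve viability endpoint at 80 hours, relative to DMSO. Compounds at eight concentrations, 1:4 steps, top 100 uM, n = 2.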
# [12] = target: mouse Estrogen Receptor alpha (Era), Esr1 (gene 13982) (UniProt P19785); test: NVS_NR_mERa: NovaScreen (NVS) Nuclear Receptor Binding Assay for mouse Estrogen Receptor alpha (Era) (AID 2283378);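 note: hit means loss of bound radioligand signal relative to DMSO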
# In short: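 Extracted mouse Era incubated with tritiated or iodinated radioligand plus test chemical, 18 h. Bound fraction separated on filters, counted by scintillation. DMSO = negative control/baseline; duplicate single-point at 25 uM, then concentration-response follow-up.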
# [13] = read-out: xenobiotic metabolism (CYP1A2), CYP1A2 (gene 1544); test: CLD_CYP1A2_6hr: CellzDirect (CLD) Gene Expression Assay for xenobiotic metabolism (CYP1A2) at 6 hours (AID 2283663);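 for AC50: potency is for induction meaning a rise in mRNA above DMSO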
# In short: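 Primary human hepatocytes from two donor preparations, dosed daily with multiple concentrations in 0.2% DMSO and harvested at 6 h. CYP1A2 mRNA induction measured by chemiluminescent qNPA, gain of signal fitted against DMSO; cytotoxicity flagged morphologically.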
# [14] = read-out: sulfotransferase (SULT2A), SULT2A1 (gene 6822); test: CLD_SULT2A_6hr: CellzDirect (CLD) Gene Expression Assay for sulfotransferase (SULT2A) at 6 hours (AID 2283669);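 note: hits raise transcript level above the DMSO vehicle baseline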
# In short: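 Primary human hepatocytes from two donor preparations were dosed daily with chemicals or 0.2% DMSO and harvested at 6 h. Transcript induction read by qNPA chemiluminescence, fitted for gain of signal relative to DMSO; morphology-based cytotoxicity annotated.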
# [15] = read-out: Cytochrome P450 3A4 (Homo sapiens) (UniProt P08684); test: CLD_CYP3A4_48hr: CellzDirect (CLD) Gene Expression Assay for xenobiotic metabolism (CYP3A4) at 48 hours (AID 2283698)
# In short: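 Primary human hepatocytes from two donor preparations dosed daily for two days with multiple chemical concentrations, 0.2% DMSO vehicle. CYP3A4 mRNA at 48 h by quantitative nuclease protection assay, chemiluminescence, positive fit versus DMSO; cytotoxicity flagged morphologically.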
# [16] = read-out: ABC Transporter (ABCB1), ABCB1 (gene 5243); test: CLD_ABCB1_6hr: CellzDirect (CLD) Gene Expression Assay for ABC Transporter (ABCB1) at 6 hours (AID 2283659)
# In short: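 Primary human hepatocytes (two donor preparations) dosed daily for two days with chemicals at multiple concentrations, 0.2% DMSO vehicle; harvested 6 h post-dose. ABCB1 mRNA induction quantified by qNPA chemiluminescence; gain-of-signal fitted versus DMSO.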
# [17] = target: Estrogen receptor (Homo sapiens) + Estrogen receptor beta (Homo sapiens) (UniProt P03372+Q92731); test: OT_ER_ERaERb_0480: Odyssey Thera (OT) 8-hour HEK293T Protein-Complementation Assay for Estrogen Receptor-alpha/-beta Heterodimer (AID 2283352)
# In short: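 Compound added to HEK293T cells carrying split-reporter-tagged ER-alpha and ER-beta LBDs, incubated 8 hours, then imaged by laser scanning cytometer. Signal rise in nucleus, or nucleus and cytoplasm, over vehicle was fitted in the positive direction.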
structure (smiles),measurement,setting,value
N#CCCO,AC50,[1],inconclusive: 25 µM
CCC(C)Nc1c([N+](=O)[O-])cc(C(C)(C)C)cc1[N+](=O)[O-] (stereo not drawn),AC50,[2],inconclusive: 202 µM
same,AC50,[3],inconclusive: 38.6 µM
same,AC50,[4],inconclusive: 2.47 µM
same,outcome,[5],inactive
same,AC50,[6],inconclusive: 0.0016 µM
same,AC50,[7],active: 1.14 µM
same,AC50,[8],inconclusive: 0.0003 µM
CCOCCOC(C)=O,AC50,[8],inconclusive: 12.2 µM
CCOC(=O)CC(SP(=S)(OC)OC)C(=O)OCC (stereo not drawn),AC50,[9],inconclusive: 0.155 µM
same,outcome,[5],inactive
same,AC50,[10],inconclusive: 13 µM
Nc1ccc([N+](=O)[O-])cc1Cl,AC50,[1],active: 2.67 µM
COCCOCCO,AC50,[11],inconclusive: 0.00142 µM
N#CCc1ccc(Cl)cc1,AC50,[1],active: 1.32 µM
C=CC(=O)N(C)C,AC50,[1],inconclusive: 0.0891 µM
O=C(Nc1ccc(Br)cc1)c1cc(Br)cc(Br)c1O,AC50,[12],inconclusive: 46.1 µM
OC(c1ccc(Cl)cc1)(c1cncnc1)c1ccccc1Cl (stereo not drawn),AC50,[2],inconclusive: 66 µM
same,AC50,[13],inconclusive: 20 µM
same,outcome,[14],inactive
same,AC50,[5],inconclusive: 20 µM
same,AC50,[15],active: 0.443 µM
same,AC50,[8],active: 77.7 µM
COC(=O)c1ccccc1S(=O)(=O)NC(=O)N(C)c1nc(C)nc(OC)n1,AC50,[16],inconclusive: 20 µM
same,AC50,[5],inconclusive: 0.00197 µM
same,AC50,[15],inconclusive: 20 µM
same,outcome,[7],inactive
Nc1ncc([N+](=O)[O-])s1,AC50,[12],inconclusive: 25 µM
CC(C#N)CCC#N (stereo not drawn),outcome,[17],inactive
CCNc1nc(Cl)nc(NC(C)C)n1,AC50,[12],active: 6.81 µM
same,outcome,[12],inactive
same,AC50,[9],inconclusive: 0.157 µM
same,outcome,[14],inactive
same,outcome,[5],inactive
same,AC50,[6],inconclusive: 1.95 µM
OC(Cc1ccccc1Cl)(Cn1[nH]cnc1=S)C1(Cl)CC1 (stereo not drawn),outcome,[1],inactive
same,AC50,[10],inconclusive: 50 µM
COP(=O)(OC)O/C(C)=C/C(=O)N(C)C,outcome,[13],inactive
same,AC50,[5],inconclusive: 20 µM
same,outcome,[7],inactive
CON=C(C(=O)OC)c1ccccc1CON=C(C)c1cccc(C(F)(F)F)c1,AC50,[13],inconclusive: 20 µM
same,outcome,[9],inactive
same,AC50,[4],inconclusive: 20 µM
same,AC50,[5],inconclusive: 0.0004 µM
same,AC50,[6],inconclusive: 20 µM
same,AC50,[15],active: 13.1 µM
same,outcome,[7],inactive
same,AC50,[8],inconclusive: 0.000412 µM
Clc1ccc(COC(Cn2ccnc2)c2ccc(Cl)cc2Cl)cc1 (stereo not drawn),AC50,[17],inconclusive: 32 µM
same,outcome,[12],inactive
same,AC50,[11],inconclusive: 0.243 µM
same,AC50,[10],active: 50 µM
CCC(C)n1c(=O)[nH]c(C)c(Br)c1=O (stereo not drawn),AC50,[3],inconclusive: 35.5 µM
same,AC50,[16],inconclusive: 20 µM
same,AC50,[4],inconclusive: 20 µM
same,AC50,[6],inconclusive: 20 µM
same,outcome,[15],inactive
same,AC50,[8],inconclusive: 50 µM

# For convenience, part of the list above.
structure (smiles),measurement,setting,value
CCOCCOC(C)=O,AC50,[8],inconclusive: 12.2 µM
CCOC(=O)CC(SP(=S)(OC)OC)C(=O)OCC (stereo not drawn),AC50,[9],inconclusive: 0.155 µM
same,outcome,[5],inactive
